This is one part of the list.
Legend:
Assay in all cases: log2 fold change, soluble protein after heating vs DMSO (PISA); higher = thermal stabilisation; K562 cells, 10 uM, 30 min; active = over 0.2 and 3.5 SD of the protein, either way, in both replicates (recomputed)
[1] = compound: CC[C@@H]1C(=O)N(C)c2cnc(Nc3ccc(C(=O)NC4CCN(C)CC4)cc3OC)nc2N1C1CCCC1
Summary of the method: (§1)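 Soluble protein was quantified by TMTpro 16plex LC-MS/MS after channel sums were equalised. It was obtained as the supernatant after 21,000xg for 90 min from pooled aliquots of K562 cells (2×10^6 cells/mL, 10 μM compound, 30 min) heated for 3 min across 48°C-58°C and extracted in PBS with 0.5% NP-40 at 4°C. Thermal stability values are relative to control samples and come from duplicates. They are given as log2 fold changes.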

By UniProt entry, the sequences of proteins in these tests, tags left out. Where a name states a change or a piece, a line headed by the entry shows the natural chain unless it says otherwise.
UniProt Q9P0W2: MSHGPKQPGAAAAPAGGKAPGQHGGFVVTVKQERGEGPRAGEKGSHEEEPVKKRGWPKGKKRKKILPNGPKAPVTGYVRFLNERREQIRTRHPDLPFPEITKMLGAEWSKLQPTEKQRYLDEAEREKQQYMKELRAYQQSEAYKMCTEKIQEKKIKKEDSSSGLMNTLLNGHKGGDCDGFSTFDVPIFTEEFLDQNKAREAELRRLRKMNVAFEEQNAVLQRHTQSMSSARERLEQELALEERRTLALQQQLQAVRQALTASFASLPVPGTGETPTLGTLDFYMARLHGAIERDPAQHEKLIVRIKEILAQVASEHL
UniProt Q9NZL4: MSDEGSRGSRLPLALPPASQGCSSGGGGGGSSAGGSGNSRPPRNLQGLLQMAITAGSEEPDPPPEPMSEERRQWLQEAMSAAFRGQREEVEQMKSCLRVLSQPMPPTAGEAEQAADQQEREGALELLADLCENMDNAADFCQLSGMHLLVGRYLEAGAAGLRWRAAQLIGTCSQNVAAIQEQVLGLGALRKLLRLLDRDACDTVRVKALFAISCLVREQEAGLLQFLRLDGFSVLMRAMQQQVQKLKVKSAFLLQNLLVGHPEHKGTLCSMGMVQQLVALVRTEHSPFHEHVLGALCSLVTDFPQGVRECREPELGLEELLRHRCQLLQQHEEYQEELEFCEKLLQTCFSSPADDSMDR
UniProt P17483: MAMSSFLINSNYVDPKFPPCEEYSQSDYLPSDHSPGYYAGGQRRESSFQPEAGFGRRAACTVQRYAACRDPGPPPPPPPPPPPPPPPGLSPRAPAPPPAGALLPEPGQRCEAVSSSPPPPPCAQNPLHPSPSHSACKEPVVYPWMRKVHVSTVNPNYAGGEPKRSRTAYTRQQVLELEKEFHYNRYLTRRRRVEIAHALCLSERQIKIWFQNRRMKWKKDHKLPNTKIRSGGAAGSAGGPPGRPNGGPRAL
UniProt Q00839, whole entry, looked up: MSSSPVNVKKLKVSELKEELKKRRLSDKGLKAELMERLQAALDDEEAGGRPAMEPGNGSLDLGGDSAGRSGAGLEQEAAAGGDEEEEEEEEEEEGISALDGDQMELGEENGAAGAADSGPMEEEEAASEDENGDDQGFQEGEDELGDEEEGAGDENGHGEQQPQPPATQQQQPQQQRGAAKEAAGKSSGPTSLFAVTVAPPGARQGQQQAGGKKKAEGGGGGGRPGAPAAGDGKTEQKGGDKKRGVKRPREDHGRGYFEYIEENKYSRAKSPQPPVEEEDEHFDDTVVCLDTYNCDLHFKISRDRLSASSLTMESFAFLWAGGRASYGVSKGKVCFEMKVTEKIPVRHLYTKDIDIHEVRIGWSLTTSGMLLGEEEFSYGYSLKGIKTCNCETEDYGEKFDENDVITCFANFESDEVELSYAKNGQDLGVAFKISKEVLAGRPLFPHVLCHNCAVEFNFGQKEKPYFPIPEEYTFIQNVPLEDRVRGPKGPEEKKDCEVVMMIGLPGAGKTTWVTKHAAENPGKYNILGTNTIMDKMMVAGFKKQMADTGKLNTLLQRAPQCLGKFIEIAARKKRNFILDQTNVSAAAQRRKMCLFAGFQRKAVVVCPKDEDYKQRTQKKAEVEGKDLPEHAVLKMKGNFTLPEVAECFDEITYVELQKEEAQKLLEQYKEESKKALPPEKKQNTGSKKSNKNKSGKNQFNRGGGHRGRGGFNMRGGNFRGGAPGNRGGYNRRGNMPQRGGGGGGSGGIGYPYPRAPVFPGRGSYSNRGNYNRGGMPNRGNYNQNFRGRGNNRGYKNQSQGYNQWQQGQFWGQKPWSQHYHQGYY
UniProt P00738: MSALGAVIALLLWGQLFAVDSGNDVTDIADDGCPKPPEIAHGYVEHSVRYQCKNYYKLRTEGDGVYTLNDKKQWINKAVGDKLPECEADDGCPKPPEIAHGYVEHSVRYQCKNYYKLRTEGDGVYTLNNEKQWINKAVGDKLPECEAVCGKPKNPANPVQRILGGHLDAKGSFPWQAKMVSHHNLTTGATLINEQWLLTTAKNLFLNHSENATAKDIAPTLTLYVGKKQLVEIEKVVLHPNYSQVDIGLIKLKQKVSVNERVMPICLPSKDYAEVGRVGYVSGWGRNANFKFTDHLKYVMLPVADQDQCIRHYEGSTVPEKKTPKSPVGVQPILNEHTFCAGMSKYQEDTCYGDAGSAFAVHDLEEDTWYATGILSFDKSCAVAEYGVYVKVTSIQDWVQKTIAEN
UniProt Q05084: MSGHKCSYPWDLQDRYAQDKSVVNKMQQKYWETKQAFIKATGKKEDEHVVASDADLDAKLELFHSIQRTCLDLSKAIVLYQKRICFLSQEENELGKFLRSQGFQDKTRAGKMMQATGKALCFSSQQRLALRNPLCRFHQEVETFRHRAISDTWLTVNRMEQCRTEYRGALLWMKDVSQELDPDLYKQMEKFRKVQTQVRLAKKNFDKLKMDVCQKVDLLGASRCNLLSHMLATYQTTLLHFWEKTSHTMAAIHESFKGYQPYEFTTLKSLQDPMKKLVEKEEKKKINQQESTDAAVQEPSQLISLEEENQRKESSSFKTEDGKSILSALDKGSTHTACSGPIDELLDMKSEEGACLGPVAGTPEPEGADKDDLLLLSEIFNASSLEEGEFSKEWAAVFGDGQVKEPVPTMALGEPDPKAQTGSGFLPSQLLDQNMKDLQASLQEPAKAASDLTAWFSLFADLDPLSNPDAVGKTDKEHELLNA
UniProt Q8IWL3: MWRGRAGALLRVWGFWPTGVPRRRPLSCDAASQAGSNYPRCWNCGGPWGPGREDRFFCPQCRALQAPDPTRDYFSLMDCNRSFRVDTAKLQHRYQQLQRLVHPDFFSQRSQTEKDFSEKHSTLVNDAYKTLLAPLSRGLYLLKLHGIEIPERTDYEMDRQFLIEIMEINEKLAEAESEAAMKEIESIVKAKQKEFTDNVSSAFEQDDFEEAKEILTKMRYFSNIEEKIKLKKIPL
UniProt P54652, whole entry, looked up: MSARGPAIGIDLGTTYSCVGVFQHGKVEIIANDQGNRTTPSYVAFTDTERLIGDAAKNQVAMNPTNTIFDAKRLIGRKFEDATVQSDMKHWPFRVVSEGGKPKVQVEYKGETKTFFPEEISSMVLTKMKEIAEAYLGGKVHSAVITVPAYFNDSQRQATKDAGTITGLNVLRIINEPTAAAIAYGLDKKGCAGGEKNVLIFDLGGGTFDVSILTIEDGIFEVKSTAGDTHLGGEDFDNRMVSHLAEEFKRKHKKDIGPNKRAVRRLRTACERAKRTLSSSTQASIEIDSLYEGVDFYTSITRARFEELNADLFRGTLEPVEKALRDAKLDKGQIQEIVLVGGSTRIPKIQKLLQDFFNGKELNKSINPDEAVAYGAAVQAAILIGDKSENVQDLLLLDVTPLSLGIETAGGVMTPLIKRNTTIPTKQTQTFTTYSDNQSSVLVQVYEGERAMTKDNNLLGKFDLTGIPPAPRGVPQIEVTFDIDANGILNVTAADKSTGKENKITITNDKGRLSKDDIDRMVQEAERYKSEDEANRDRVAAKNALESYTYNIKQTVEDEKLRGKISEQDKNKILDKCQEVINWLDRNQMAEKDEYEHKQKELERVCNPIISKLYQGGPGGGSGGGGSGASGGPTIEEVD
UniProt P13747, whole entry, looked up: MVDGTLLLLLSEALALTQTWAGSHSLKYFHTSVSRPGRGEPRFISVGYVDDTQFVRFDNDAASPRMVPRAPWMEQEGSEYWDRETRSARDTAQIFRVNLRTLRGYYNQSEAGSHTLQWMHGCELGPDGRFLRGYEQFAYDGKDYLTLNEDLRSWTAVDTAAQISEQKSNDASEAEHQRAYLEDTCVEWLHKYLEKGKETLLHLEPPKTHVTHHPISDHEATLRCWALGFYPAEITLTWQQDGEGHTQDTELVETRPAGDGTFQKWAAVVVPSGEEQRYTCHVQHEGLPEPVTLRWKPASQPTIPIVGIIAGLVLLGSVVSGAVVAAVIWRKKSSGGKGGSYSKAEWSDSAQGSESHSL
UniProt Q58FF6, whole entry, looked up: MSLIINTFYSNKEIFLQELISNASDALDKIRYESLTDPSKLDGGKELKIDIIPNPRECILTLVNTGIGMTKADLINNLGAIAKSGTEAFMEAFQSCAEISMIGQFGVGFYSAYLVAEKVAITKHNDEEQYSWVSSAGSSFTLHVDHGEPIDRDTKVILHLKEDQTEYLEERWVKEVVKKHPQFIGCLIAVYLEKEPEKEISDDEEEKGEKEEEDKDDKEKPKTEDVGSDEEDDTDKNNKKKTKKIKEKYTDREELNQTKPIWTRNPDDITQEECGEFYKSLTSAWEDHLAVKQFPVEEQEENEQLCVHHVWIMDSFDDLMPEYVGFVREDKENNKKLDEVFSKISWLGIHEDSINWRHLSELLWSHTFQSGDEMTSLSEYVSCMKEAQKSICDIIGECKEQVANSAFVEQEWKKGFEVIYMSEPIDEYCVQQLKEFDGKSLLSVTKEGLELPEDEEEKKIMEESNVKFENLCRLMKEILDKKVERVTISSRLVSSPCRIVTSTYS
UniProt Q659A1: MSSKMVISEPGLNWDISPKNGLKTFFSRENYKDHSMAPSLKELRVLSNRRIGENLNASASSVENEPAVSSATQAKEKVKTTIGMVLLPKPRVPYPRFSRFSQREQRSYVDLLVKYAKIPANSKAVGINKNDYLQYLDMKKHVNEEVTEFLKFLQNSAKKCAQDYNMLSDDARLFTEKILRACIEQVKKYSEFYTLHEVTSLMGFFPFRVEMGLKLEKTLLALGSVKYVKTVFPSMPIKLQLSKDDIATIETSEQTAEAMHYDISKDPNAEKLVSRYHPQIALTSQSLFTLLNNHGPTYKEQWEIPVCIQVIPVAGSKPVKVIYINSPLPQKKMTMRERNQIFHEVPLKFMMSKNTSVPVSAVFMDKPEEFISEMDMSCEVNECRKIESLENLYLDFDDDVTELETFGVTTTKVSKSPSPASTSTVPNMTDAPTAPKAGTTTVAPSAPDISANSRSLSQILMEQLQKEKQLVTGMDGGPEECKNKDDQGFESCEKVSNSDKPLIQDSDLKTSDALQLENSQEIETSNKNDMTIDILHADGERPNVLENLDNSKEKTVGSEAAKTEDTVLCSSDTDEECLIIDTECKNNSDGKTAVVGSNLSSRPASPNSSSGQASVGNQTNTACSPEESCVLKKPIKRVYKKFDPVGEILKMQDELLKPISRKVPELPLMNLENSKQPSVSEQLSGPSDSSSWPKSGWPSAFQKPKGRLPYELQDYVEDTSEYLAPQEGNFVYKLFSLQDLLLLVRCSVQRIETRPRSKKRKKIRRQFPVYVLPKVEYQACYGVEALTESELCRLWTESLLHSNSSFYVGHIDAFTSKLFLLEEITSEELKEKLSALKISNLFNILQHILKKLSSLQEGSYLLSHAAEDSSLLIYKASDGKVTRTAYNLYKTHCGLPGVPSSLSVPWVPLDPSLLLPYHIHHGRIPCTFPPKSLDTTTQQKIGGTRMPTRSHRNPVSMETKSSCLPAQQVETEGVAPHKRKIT
UniProt P41134: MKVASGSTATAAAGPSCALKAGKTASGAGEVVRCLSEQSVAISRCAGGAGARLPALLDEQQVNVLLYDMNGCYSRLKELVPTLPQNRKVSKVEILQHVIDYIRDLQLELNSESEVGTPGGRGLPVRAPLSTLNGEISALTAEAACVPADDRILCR
UniProt Q9NWY4: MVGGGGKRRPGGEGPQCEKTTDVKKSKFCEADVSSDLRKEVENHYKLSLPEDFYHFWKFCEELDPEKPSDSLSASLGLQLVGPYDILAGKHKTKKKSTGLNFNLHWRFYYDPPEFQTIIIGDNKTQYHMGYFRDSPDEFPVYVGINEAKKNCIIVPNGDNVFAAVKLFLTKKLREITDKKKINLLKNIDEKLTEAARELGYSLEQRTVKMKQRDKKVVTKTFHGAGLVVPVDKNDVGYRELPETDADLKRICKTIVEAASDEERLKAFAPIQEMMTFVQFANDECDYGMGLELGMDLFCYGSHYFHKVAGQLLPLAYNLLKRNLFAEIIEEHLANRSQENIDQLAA
UniProt Q9NSB8: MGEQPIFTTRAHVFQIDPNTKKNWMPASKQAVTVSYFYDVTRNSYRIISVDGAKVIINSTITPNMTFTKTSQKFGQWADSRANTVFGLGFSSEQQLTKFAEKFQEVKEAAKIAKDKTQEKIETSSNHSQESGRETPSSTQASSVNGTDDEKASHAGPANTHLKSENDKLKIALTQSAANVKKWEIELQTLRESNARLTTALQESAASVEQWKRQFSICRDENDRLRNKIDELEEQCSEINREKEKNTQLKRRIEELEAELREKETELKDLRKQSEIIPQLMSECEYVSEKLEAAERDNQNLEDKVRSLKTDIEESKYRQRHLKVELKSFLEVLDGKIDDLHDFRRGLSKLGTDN
UniProt Q9BW72: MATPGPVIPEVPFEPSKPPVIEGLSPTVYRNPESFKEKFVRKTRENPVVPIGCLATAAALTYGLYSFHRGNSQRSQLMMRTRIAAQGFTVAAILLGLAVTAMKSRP
UniProt O75506: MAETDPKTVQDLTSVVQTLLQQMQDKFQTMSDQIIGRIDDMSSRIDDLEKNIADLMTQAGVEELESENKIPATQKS
UniProt Q9Y241: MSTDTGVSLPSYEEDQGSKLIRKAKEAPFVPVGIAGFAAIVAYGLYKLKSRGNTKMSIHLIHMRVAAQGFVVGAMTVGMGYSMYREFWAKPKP

[2] = compound: CC[C@H](C)N1C=C(C2=C(C=C(C=C21)C3=CN=C(C=C3)N4CCNCC4)C(=O)NCC5=C(C=C(NC5=O)C)C)C
Summary of the method: as §1

epoxomicin = compound: CC[C@H](C)[C@@H](C(=O)N[C@@H]([C@@H](C)O)C(=O)N[C@@H](CC(C)C)C(=O)[C@]1(CO1)C)NC(=O)[C@H]([C@@H](C)CC)N(C)C(=O)C [epoxomicin]
Summary of the method: as §1

[3] = compound: CCn1cc(-c2ccnc3[nH]c(-c4cccc(CN(C)C)c4)cc23)c(-c2ccc(NC(=O)N(C)C)cc2)n1
Summary of the method: as §1

[4] = compound: CN(C)CC(=O)Nc1ccc2[nH]c(=O)c3ccccc3c2c1
Summary of the method: as §1

rosiglitazone = compound: CN(CCOC1=CC=C(C=C1)C[C@H]2C(=O)NC(=O)S2)C3=CC=CC=N3 (racemic) [rosiglitazone]
Summary of the method: as §1

[5] = compound: CN1CCC(CNc2ccc3ncc(-c4cccc(OC(F)(F)F)c4)n3n2)CC1
Summary of the method: as §1

sotrastaurin = compound: CN1CCN(c2nc(C3=C(c4c[nH]c5ccccc45)C(=O)NC3=O)c3ccccc3n2)CC1 [sotrastaurin]
Summary of the method: as §1

alvocidib = compound: CN1CC[C@H](c2c(O)cc(O)c3c(=O)cc(-c4ccccc4Cl)oc23)[C@H](O)C1 [alvocidib]
Summary of the method: as §1

Tubastatin A = compound: CN1CCc2c(c3ccccc3n2Cc2ccc(C(=O)NO)cc2)C1 [Tubastatin A]
Summary of the method: as §1

defactinib = compound: CNC(=O)c1ccc(Nc2ncc(C(F)(F)F)c(NCc3nccnc3N(C)S(C)(=O)=O)n2)cc1 [defactinib]
Summary of the method: as §1

rucaparib = compound: CNCc1ccc(-c2[nH]c3cc(F)cc4c3c2CCNC4=O)cc1 [rucaparib]
Summary of the method: as §1

encorafenib = compound: COC(=O)N[C@@H](C)CNc1nccc(-c2cn(C(C)C)nc2-c2cc(Cl)cc(NS(C)(=O)=O)c2F)n1 [encorafenib]
Summary of the method: as §1

[6] = compound: COC(=O)[C@H](CCSC)NC(=O)C1=C(C=C(C=C1)NC[C@H](CS)N)C2=CC=CC=C2
Summary of the method: as §1

volasertib = compound: CC[C@@H]1C(=O)N(C)c2cnc(Nc3ccc(C(=O)N[C@H]4CC[C@H](N5CCN(CC6CC6)CC5)CC4)cc3OC)nc2N1C(C)C [volasertib]
Summary of the method: as §1

[7] = compound: CN1C2=C(C3=C1C(=O)N(N=C3)CC4=CC(=CC=C4)N)SC(=C2)S(=O)C
Summary of the method: as §1

saracatinib = compound: CN1CCN(CCOc2cc(OC3CCOCC3)c3c(Nc4c(Cl)ccc5c4OCO5)ncnc3c2)CC1 [saracatinib]
Summary of the method: as §1

[8] = compound: CNc1nc(-c2ccc3c(N)n[nH]c3c2)cc(N2C[C@@H](C(=O)NC3CCCCC3)CC[C@H]2C)n1
Summary of the method: as §1

[9] = compound: CCn1c(C(=O)N(C2CC2)C2CC2)cc2c3c(ncn3C)c(Nc3cc(C)n(C)n3)nc21
Summary of the method: as §1

[10] = compound: CNC(=O)C1=CC=CC=C1NC2=NC(=NC=C2Cl)NC3=C(C=C(C=C3)N4CCOCC4)OC
Summary of the method: as §1

Measured: log2 fold change

HNRNPA1 (UniProt H0YH80)
inactive: [1] 0.289 | [2] -0.103 | epoxomicin -0.386 | [3] 0.4 | [4] -0.087 | rosiglitazone -0.313 | [5] 0.288 | sotrastaurin -0.219 | alvocidib 0.512 | Tubastatin A 0 | defactinib 0.332 | rucaparib 0.509 | encorafenib 0.157 | [6] 0.036

HMG20B (UniProt Q9P0W2)
inactive: [2] -0.029 | [3] -0.132 | rosiglitazone 0.126 | [5] -0.026 | alvocidib -0.105

HSPBP1 (UniProt Q9NZL4)
inactive: epoxomicin 0.011

HOXB4 (UniProt P17483)
inactive: [2] 0.144 | epoxomicin -0.029

HNRNPU isoform 2 (UniProt Q00839)
inactive: volasertib 0.007 | [7] 0.217 | saracatinib -0.101 | Tubastatin A 0.16 | [8] 0.043

ICE1 (UniProt Q9Y2F5)
inactive: [2] -0.142 | epoxomicin -0.064 | rosiglitazone 0.018 | sotrastaurin 0.081

HNMT (UniProt P50135)
inactive: [9] -0.29 | [10] -0.052

Two records drawn at random from those above:
HNRNPA1 (UniProt H0YH80)
inactive: [1] 0.289 | [2] -0.103 | epoxomicin -0.386 | [3] 0.4 | [4] -0.087 | rosiglitazone -0.313 | [5] 0.288 | sotrastaurin -0.219 | alvocidib 0.512 | Tubastatin A 0 | defactinib 0.332 | rucaparib 0.509 | encorafenib 0.157 | [6] 0.036

HMG20B (UniProt Q9P0W2)
inactive: [2] -0.029 | [3] -0.132 | rosiglitazone 0.126 | [5] -0.026 | alvocidib -0.105

(further entries)

HLA-A isoform 2 (UniProt P04439)
inactive: [7] 0.071 | saracatinib -0.233 | alvocidib -0.008 | [8] -0.087

HP (UniProt P00738)
inactive: sotrastaurin -0.231

HNRNPD (UniProt D6RF44)
inactive: [9] -0.039 | [10] -0.048

ICA1 isoform 2 (UniProt Q05084)
inactive: epoxomicin 0.081 | [9] -0.119 | [3] -0.137 | [7] 0.182 | [5] 0.127 | saracatinib 0.013 | alvocidib -0.039 | [10] 0.156 | [8] 0.099

HPS4 isoform 4 (UniProt Q9NQG7)
inactive: [2] -0.069 | [9] 0.02 | [3] 0.182 | [7] -0.056 | [5] -0.043 | saracatinib 0.101 | Tubastatin A -0.04 | [10] -0.032 | [8] -0.072

HSCB (UniProt Q8IWL3)
inactive: volasertib -0.08 | [2] 0.099 | epoxomicin 0.036 | [9] 0.093 | [3] 0.025 | [4] 0 | [7] -0.097 | [5] -0.078 | saracatinib 0.004 | sotrastaurin 0.001 | alvocidib -0.033 | Tubastatin A -0.074 | [10] -0.018 | defactinib -0.193 | [8] -0.099 | [6] 0.011

HSPA2 (UniProt P54652)
active: [10] 0.809
inactive: [2] -0.014 | sotrastaurin 0.038

HLA-E (UniProt P13747)
inactive: volasertib -0.029 | epoxomicin -0.018 | [3] 0.004 | rosiglitazone 0.095 | [7] 0.033 | [5] 0.056 | saracatinib 0.007 | sotrastaurin -0.022 | alvocidib -0.064 | Tubastatin A -0.08 | [8] -0.067

HSP90AA2P (UniProt Q14568)
inactive: Tubastatin A -0.022

HOXD9 (UniProt P28356)
inactive: [1] 0.039 | [9] 0.114 | [3] -0.018 | [4] -0.017 | [7] 0.046 | [5] -0.1 | saracatinib -0.036 | alvocidib -0.238 | [10] 0.079 | defactinib -0.012 | rucaparib 0.099 | [8] -0.02 | encorafenib 0.276 | [6] -0.003

HSP90AB4P (UniProt Q58FF6)
inactive: [1] 0.065 | [2] -0.08 | epoxomicin 0.116 | [9] 0.015 | rosiglitazone 0.081 | [7] 0.085 | saracatinib -0.04 | sotrastaurin -0.044 | alvocidib -0.095 | Tubastatin A 0.05 | [10] -0.11 | rucaparib -0.342 | [8] 0.109 | encorafenib 0.167

ICE2 (UniProt Q659A1)
inactive: epoxomicin -0.173 | [9] 0.131 | [3] 0.19 | [4] 0.051 | rosiglitazone 0.036 | [5] -0.22 | alvocidib -0.005 | [10] -0.19 | defactinib 0.044 | [6] -0.145

ID1 (UniProt P41134)
inactive: [2] 0.059 | epoxomicin 0.432 | [9] -0.016 | rosiglitazone -0.136 | [7] 0.103 | saracatinib 0.023 | Tubastatin A 0.61 | [10] 0.037 | [8] -0.552

HPF1 (UniProt Q9NWY4)
inactive: epoxomicin -0.017 | [7] 0.125 | saracatinib -0.125 | [8] -0.195

ICOSLG isoform 2 (UniProt O75144)
inactive: volasertib 0.082 | [9] -0.224 | [4] 0.039 | rosiglitazone 0.011 | [10] 0.296 | defactinib -0.07 | [6] -0.317

HOMER2 (UniProt Q9NSB8)
inactive: [1] 0.047 | epoxomicin -0.022 | [4] -0.093 | alvocidib 0.103 | Tubastatin A -0.132 | defactinib 0.031 | rucaparib -0.035 | encorafenib 0.169 | [6] 0.117

HIGD2A (UniProt Q9BW72)
inactive: epoxomicin -0.073 | [9] 0.254 | [10] -0.01

HSBP1 (UniProt O75506)
inactive: [1] -0.124 | [2] 0.47 | rosiglitazone 0.241 | rucaparib -0.339 | encorafenib -0.057

HUWE1, A0A087X1S3
inactive: [1] -0.075 | epoxomicin -0.072 | [9] -0.178 | [3] 0.011 | rosiglitazone 0.001 | [7] 0.095 | [5] -0.078 | saracatinib -0.272 | sotrastaurin -0.037 | alvocidib -0.013 | Tubastatin A 0 | [10] -0.053 | rucaparib 0.018 | [8] 0.059 | encorafenib 0.012

HIGD1A isoform 2 (UniProt Q9Y241)
inactive: [2] 0.102 | rosiglitazone -0.057 | sotrastaurin 0.012

HMBS (UniProt F5H226)
inactive: [3] 0.193 | [4] -0.026 | rosiglitazone 0.77 | [5] -0.085 | sotrastaurin 0.085 | alvocidib 0.21 | Tubastatin A -0.104 | defactinib 0.067 | [6] -0.224

HNRNPK isoform 3 (UniProt P61978)
inactive: [1] 0.121 | [2] -0.062 | epoxomicin -0.035 | [3] 0.032 | [4] 0.012 | [7] -0.057 | [5] 0.076 | saracatinib 0.04 | sotrastaurin 0.059 | Tubastatin A 0.034 | [10] -0.05 | defactinib 0.096 | rucaparib 0.032 | [8] -0.035 | encorafenib -0.041 | [6] -0.028

HOMER3 (UniProt Q9NSC5)
inactive: [9] -0.113 | sotrastaurin -0.01 | alvocidib -0.06 | [10] -0.011

HTR1F (UniProt P30939)
inactive: [9] 0.028 | [3] -0.132 | [5] 0.017 | alvocidib -0.191 | [10] 0.008

HSPBAP1 (UniProt Q96EW2)
inactive: [9] -0.051 | [4] 0.02 | alvocidib 0.011 | [10] 0.037 | defactinib -0.127 | [6] -0.078

HMGCS2 (UniProt P54868)
inactive: sotrastaurin -0.057

— the supplement of paper PMC10849652
